{"source": "PubChem BioAssay AID1347075", "about": "(National Center for Advancing Translational Sciences (NCATS), 2019)", "note": "Where “and” joins values, the source holds several entries; their conditions need not be identical. Equal values may be shown once. Hit rate of the full screen: of about 400,000 compounds, about 5,500 (1.4%) were called active. Inconclusive results, whose numbers are uncertain, are shown with a selection of clear calls. The call rests on the fitted dose curve; in most records, active means well fitted cell-killing curve with a large enough effect; inconclusive means small, poorly fitted or top-dose-only effect, or effect the other way; inactive means flat fitted curve, though single readings scatter. Where the call is inconclusive, the potency comes from a doubtful curve fit. On the % scale 0 is the no-effect control and ±100 the full control effect; potency means the concentration at half of the fitted maximal effect.", "data": [{"experiment": "qHTS assay for MDR1-selective chemotherapeutics: Primary screen using the parental adenocarcinoma cell KB-3-1; further: nearly all actives have a fitted effect of over 60% in size", "settings": "KB-3-1 viability, CellTiter-Glo ATP luminescence, 72 h; activity change, negative = cytotoxic: at 46.1 µM (top of the series)", "in_short": "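Parental KB-3-1 adenocarcinoma cells in phenol-red-free DMEM with 10% FBS were pin-treated with compounds at several concentrations, incubated 72 h at 37 °C, and viability read by CellTiter-Glo luminescence; concentration-effect curves were fitted after normalization.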", "values": [{"smiles": "CCc1cc(CNC(=O)c2ccc(OC3CCN(C(C)=O)CC3)c(OC)c2)on1", "Potency": "inconclusive: 3.26 µM [cytotoxic, full curve, poor fit]"}, {"smiles": "Cc1ccccc1Cn1nnc2c(=O)[nH]c(C3CCN(C(=O)c4ccccc4)CC3)nc21", "activity change, negative = cytotoxic": "inactive: -6.35%"}, {"smiles": "Cn1cc([N+](=O)[O-])c(C(=O)Nc2ccc(C(=O)N3CCCCC3)cc2)n1", "Potency": "active: 23.1 µM"}, {"smiles": "CCOc1ccc(S(=O)(=O)N2CCN(C(=O)c3cc4c(s3)CCCC4)CC2)cc1", "Potency": "active: 11.6 µM"}, {"smiles": "O=C(NCCc1ccccc1Cl)c1ccc2nc3ccccc3c(=O)n2c1", "Potency": "inconclusive: 29.1 µM [cytotoxic, single point]"}, {"smiles": "COc1ccc(/C(C)=N/NC(=O)CNC(=O)CCc2ccccc2)c(OC)c1", "Potency": "inconclusive: 29.1 µM [cytotoxic, single point]"}, {"smiles": "O=C(NC1CC1)C1CCCN1S(=O)(=O)c1ccc2ccccc2c1", "note": "(configuration not stated)", "Potency": "active: 16.4 µM"}, {"smiles": "COc1ccc(C(=O)Nc2ccccn2)cc1", "activity change, negative = cytotoxic": "inactive: 7.05%"}, {"smiles": "Cc1[nH]c2c(C)cccc2c1CCNS(=O)(=O)c1cccc([N+](=O)[O-])c1", "Potency": "inconclusive: 29.1 µM [cytotoxic, single point]"}, {"smiles": "Cn1nc(-c2ccccc2)cc1NC(=O)[C@@H]1O[C@H](CO)[C@H](O)[C@H](O)[C@H]1O", "activity change, negative = cytotoxic": "inactive: 0%"}, {"smiles": "COc1ccc2nc(NC(=O)C3CCN(S(=O)(=O)c4cccs4)CC3)sc2c1", "Potency": "inconclusive: 25.9 µM [cytotoxic, single point]"}, {"smiles": "Cc1ccc(Cl)cc1NC(=O)C(=O)N1CCCCC1", "activity change, negative = cytotoxic": "inactive: 3.93%"}, {"smiles": "FC(F)(F)c1cccc(Nc2nc(N3CCOCC3)nc(N3CCOCC3)n2)c1", "Potency": "inconclusive: 29.1 µM [cytotoxic, partial curve, poor fit]"}, {"smiles": "COc1ccc2nc(NC(=O)c3ccccc3O)sc2c1", "Potency": "inconclusive: 32.6 µM [cytotoxic, partial curve, poor fit]"}, {"smiles": "CC(C)Oc1ccc(CNC(=O)c2ccc(NC(=O)N3CCSc4ncccc43)cc2)cc1", "activity change, negative = cytotoxic": "inactive: 0.311%"}, {"smiles": "COc1ccc(NC(=O)c2cc(-c3ccccc3Cl)no2)cc1", "Potency": "inconclusive: 32.6 µM [cytotoxic, single point]"}, {"smiles": "Cc1cccn2c(=O)c3cc(C(=O)NC4CCCC4)n(C)c3nc12", "Potency": "active: 10.3 µM"}, {"smiles": "N#Cc1ccc(N=c2ssnc2Cl)cc1", "Potency": "inconclusive: 23.1 µM [cytotoxic, single point]"}, {"smiles": "CC(C)C(c1nnnn1Cc1cccs1)N1CCN(C(=O)c2ccco2)CC1", "note": "(configuration not stated)", "activity change, negative = cytotoxic": "inactive: -0.951%"}, {"smiles": "O=C(Nc1ccc(Cl)cc1)N[C@H]1CC[C@H](CCn2cc(-c3ccccc3F)nn2)O[C@@H]1CO", "Potency": "inconclusive: 16.4 µM [cytotoxic, single point]"}, {"smiles": "COc1cccc(OC)c1C(=O)Nc1cccnc1", "activity change, negative = cytotoxic": "inactive: -1.51%"}, {"smiles": "O=C1OCCC1=CN1CCCCC1", "activity change, negative = cytotoxic": "inactive: 26.7%"}, {"smiles": "CC(=O)NC(CC(=O)OCC(=O)N1CCc2ccccc21)c1ccccc1", "note": "(configuration not stated)", "activity change, negative = cytotoxic": "inactive: 5.73%"}, {"smiles": "CCc1ccc(NC(=O)C(=O)NCC(c2ccc3c(c2)OCO3)N2CCOCC2)cc1", "note": "(configuration not stated)", "activity change, negative = cytotoxic": "inactive: 14%"}, {"smiles": "Cc1cc2ccccn2c1C(=O)c1ccc(S(=O)(=O)N(C)C)cc1", "Potency": "inconclusive: 18.4 µM [cytotoxic, single point]"}, {"smiles": "N#CC1=C2SCC(O)(c3ccccc3)N2C(=O)CC1c1ccccc1", "note": "(configuration not stated)", "Potency": "active: 1.3 µM"}, {"smiles": "CSc1ccccc1OCc1cc(C(=O)N2CCN(c3ccccc3)CC2C)no1", "note": "(configuration not stated)", "Potency": "inconclusive: 25.9 µM [cytotoxic, single point]"}, {"smiles": "CC(C)OC(=O)C(=O)NNc1ccccc1", "Potency": "inconclusive: 20.6 µM [cytotoxic, single point]"}, {"smiles": "CCOC(=O)CSC1=C(C#N)C(c2sccc2C)CC(=O)N1", "note": "(configuration not stated)", "Potency": "active: 5.01 µM"}, {"smiles": "CCCC(=O)N(c1ccc2oc(C)c(C(C)=O)c2c1)S(=O)(=O)c1ccc(C)cc1", "Potency": "inconclusive: 29.1 µM [cytotoxic, single point]"}, {"smiles": "COc1ccc2cc(-c3ccccc3)ncc2c1", "activity change, negative = cytotoxic": "inactive: 0%"}, {"smiles": "O=C(CSCC(=O)N1CCCCC1)Nc1nc(-c2ccccc2)c(-c2ccccc2)s1", "Potency": "inconclusive: 29.1 µM [cytotoxic, single point]"}, {"smiles": "CN(Cc1nccn1C)C(=O)C1CCC(=O)N(CCc2ccc(Cl)cc2)C1", "note": "(configuration not stated)", "activity change, negative = cytotoxic": "inactive: -7.35%"}, {"smiles": "ONC(=Nc1ccccc1)c1ccc(Cl)cc1", "Potency": "inconclusive: 25.9 µM [cytotoxic, single point]"}, {"smiles": "Cn1cc([N+](=O)[O-])c(C(=O)Nc2ccn(C34CC5CC(CC(C5)C3)C4)n2)n1", "Potency": "active: 4.61 µM"}, {"smiles": "CCC1(c2ccccc2)NC(=O)N(CC(=O)NCc2ccncc2)C1=O", "note": "(configuration not stated)", "Potency": "inconclusive: 20.6 µM [rising, partial curve, poor fit]"}, {"smiles": "Cc1cccc(NC(=O)c2sc3nc(-c4ccc(F)cc4)cn3c2C)n1", "activity change, negative = cytotoxic": "inactive: -10.9%"}, {"smiles": "Cc1ccccc1NC(=O)c1csc2c1CCCC2", "activity change, negative = cytotoxic": "inactive: -17.1%"}, {"smiles": "O=C(CCl)N1CCCC1c1ccc2c(c1)OCCO2", "note": "(configuration not stated)", "Potency": "inconclusive: 20.6 µM [cytotoxic, single point]"}, {"smiles": "N#CC(C#N)=C(Nc1ccc(F)cc1)SCc1cccc(F)c1", "Potency": "active: 16.4 µM"}, {"smiles": "COc1cc(/C=C2\\CCC/C(=C\\c3ccc(O)c(OC)c3)C2=O)ccc1O", "Potency": "inconclusive: 23.1 µM [cytotoxic, partial curve, poor fit] and inconclusive: 20.6 µM [cytotoxic, single point]"}, {"smiles": "COc1ccc(CN2CCN(S(=O)(=O)c3ccc(F)cc3)CC2)cc1OC", "activity change, negative = cytotoxic": "inactive: -10.1%"}, {"smiles": "COc1ccc(-c2[nH]ncc2N=Nc2cc(C)cc(C)c2)cc1", "Potency": "inconclusive: 29.1 µM [cytotoxic, single point]"}, {"smiles": "Cc1nn(-c2ccccc2)c(N2CCCC2)c1/C=C1\\N=C(c2ccc(OC(C)C)cc2)OC1=O", "activity change, negative = cytotoxic": "inconclusive: -2.72%"}, {"smiles": "CN(Cc1c(O)ccc2c1oc(=O)c1ccccc12)C1CCCCC1", "Potency": "inconclusive: 29.1 µM [cytotoxic, single point]"}, {"smiles": "Cc1nc(-c2ccc(S(=O)(=O)N3CCCN(CCc4ccccc4)CC3)s2)cs1", "Potency": "inconclusive: 29.1 µM [cytotoxic, single point]"}, {"smiles": "O=C(NCCCCc1ccccc1)NC[C@@H]1CC[C@@H](Cc2ccc(-c3ccccc3)cc2)O1", "Potency": "inconclusive: 25.9 µM [cytotoxic, single point]"}, {"smiles": "CCC1CCCCN1C(=O)CSc1nnc(-c2ccc(OC)cc2)o1", "note": "(configuration not stated)", "activity change, negative = cytotoxic": "inactive: -8.01%"}, {"smiles": "COc1cc(OC)cc(C(=O)NNC(=O)c2cc3ccccc3cc2O)c1", "Potency": "inconclusive: 13 µM [cytotoxic, partial curve]"}, {"smiles": "Nc1nonc1N/N=C/c1c(O)ccc2ccccc12", "Potency": "inconclusive: 29.1 µM [cytotoxic, single point]"}, {"smiles": "CC(C)Oc1ccc(S(=O)(=O)N2CCOCC2)cc1NC(=O)c1ccc(N2CCCC2=O)cc1", "activity change, negative = cytotoxic": "inactive: 0.491%"}, {"smiles": "COc1ccc(/C=C2\\SC(=S)N(CCC(=O)Nc3ccc(O)cc3)C2=O)cc1", "activity change, negative = cytotoxic": "inactive: -1.58%"}, {"smiles": "Cc1ccc(Nc2nc(-c3sc(C)nc3C)cs2)cc1", "Potency": "active: 2.31 µM"}, {"smiles": "CC(C)=CCc1c2c(c(O)c3c(=O)c4c(oc13)-c1cc(O)c(O)cc1OC4C=C(C)C)C=CC(C)(C)O2", "note": "(configuration not stated)", "Potency": "inconclusive: 18.4 µM [cytotoxic, single point]"}, {"smiles": "Cc1ccc(N2C(N)=C(C#N)C(c3ccsc3)C3=C2CC(C)(C)CC3=O)cc1", "note": "(configuration not stated)", "Potency": "inconclusive: 29.1 µM [cytotoxic, single point]"}, {"smiles": "O=C(/C=C/c1ccccc1)NCCS(=O)(=O)N1CCN(c2ccccc2F)CC1", "activity change, negative = cytotoxic": "inactive: -2.05%"}, {"smiles": "CSc1ccc(NC(=O)N2CCN(c3nc4ccccc4s3)CC2)cc1", "Potency": "inconclusive: 7.31 µM [cytotoxic, partial curve]"}, {"smiles": "COc1cccc(NS(=O)(=O)c2ccc3[nH]cc(C(=O)NCCc4ccccc4)c(=O)c3c2)c1", "activity change, negative = cytotoxic": "inactive: -16.8%"}, {"smiles": "Cn1nnnc1Sc1ncnc2scc(-c3ccccc3Cl)c12", "Potency": "inconclusive: 4.11 µM [cytotoxic, full curve, poor fit]"}, {"smiles": "COc1cccc(N2C(=O)N(Cc3ccc(C#N)cc3)c3ccccc3S2(=O)=O)c1", "Potency": "inconclusive: 18.4 µM [cytotoxic, single point]"}, {"smiles": "CC1=C(C)CC(C(=O)N2CCN(C/C=C/c3ccccc3)CC2)C(C(=O)O)C1", "note": "(configuration not stated)", "Potency": "inconclusive: 29.1 µM [rising, single point]"}, {"smiles": "Cc1cc(C)cc(NC(=O)Nc2ccc3c(c2)N(C)C(=O)CS3)c1", "Potency": "inconclusive: 14.6 µM [cytotoxic, partial curve]"}, {"smiles": "CC1(C(=O)O)Oc2cccnc2NC1=O", "note": "(configuration not stated)", "activity change, negative = cytotoxic": "inactive: 5.76%"}, {"smiles": "Cc1ccccc1C(C)NS(=O)(=O)c1ccc2c(c1)OCCO2", "note": "(configuration not stated)", "activity change, negative = cytotoxic": "inactive: 0.149%"}, {"smiles": "COc1ccc(NC(=O)N(C)C[C@H]2Oc3c(NC(=O)Nc4ccc(C(F)(F)F)cc4)cccc3C(=O)N([C@H](C)CO)C[C@@H]2C)cc1", "Potency": "inconclusive: 29.1 µM [cytotoxic, single point]"}, {"smiles": "O=S(=O)(c1ccccc1F)N1CCC(Oc2ccc(-n3cnnn3)cc2)CC1", "Potency": "inconclusive: 18.4 µM [cytotoxic, single point]"}, {"smiles": "CCN(CC)C(=O)CSC1=Nc2ccccc2C2=NC(c3ccccc3)C(=O)N12", "note": "(configuration not stated)", "activity change, negative = cytotoxic": "inactive: -3.12%"}, {"smiles": "CN1CCN(C(=O)c2cc(COc3ccc(F)cc3Cl)on2)CC1c1ccccc1", "note": "(configuration not stated)", "Potency": "active: 16.4 µM"}, {"smiles": "CCC1=C(OC(=O)N(CC)CC)N2C(=O)OC(=NCCc3c[nH]c4ccccc34)[C@]2(Cc2ccccc2)[C@H]2C1=CC[C@H]1C(=O)NC(=O)[C@H]12", "Potency": "inconclusive: 32.6 µM [cytotoxic, single point]"}, {"smiles": "Cc1ccc(-c2nc(CSCC(=O)NCCN3CCN(Cc4ccccc4)CC3)c(C)o2)cc1", "Potency": "inconclusive: 29.1 µM [cytotoxic, single point]"}, {"smiles": "O=C(OC1CCOC1=O)c1ccc(CO)cc1", "note": "(configuration not stated)", "activity change, negative = cytotoxic": "inactive: 1.42%"}, {"smiles": "O=C(NC(c1ccc(F)cc1)c1ccc2ccccc2n1)C1CCN(CCOc2ccc(Cl)cc2)CC1", "note": "(configuration not stated)", "Potency": "inconclusive: 29.1 µM [cytotoxic, single point]"}]}]}
